Results from US20140072662A1, “Andrographis Paniculata Compositions and Methods for Treatment of Addictions” (Omeros Corporation, priority 2012, published 2014).

Test system: msP rats
Test: Two-bottle choice paradigm, voluntary 10% alcohol intake in msP rats
Type: in vivo, rat
Conditions: andrographolide 5 and 10 mg/kg i.p.; for food consumption: 0.5, 2, 8 and 24 hours
Description: Male genetically selected alcohol-preferring rats were used. They were bred at the Department of Experimental Medicine and Public Health of the University of Camerino (Marche, Italy) for 64 generations from Sardinian alcohol-preferring (sP) rats of the 13th generation, provided by the Department of Neurosciences of the University of Cagliari (Colombo et al, 2006). They are referred to as Marchigian sP (msP) rats (Ciccocioppo et al, 2006). At the time of the experiments their body weight ranged between 300 and 350 g. They were kept in single cages in a room with a reverse 12:12 h light/dark cycle (lights off at 9:30 a.m.), temperature of 20-22° C. and humidity of 45-55%. Rats were offered free access to tap water and food pellets (4RF18, Mucedola, Settimo Milanese, Italy), except when noted. All the procedures were conducted in adherence with the European Community Council Directive for Care and Use of Laboratory Animals and the National Institutes of Health Guide for the Care and Use of Laboratory Animals.
A widely used method for testing fluid preference is the two-bottle choice paradigm, in which water and 10% (v/v) alcohol solution were offered in graduated drinking tubes equipped with metallic drinking spouts and their consumption was measured by reading the volume consumed from the graduated tubes. Food intake was measured by weighing the food containers and taking into account spillage. Alcohol, water and food intakes are expressed as g/kg to reduce the influence of differences in body weight.
To assess the effect of A. paniculata on voluntary alcohol intake, the inventor used the two-bottle choice paradigm in Marchigian Sardinian (msP) rats, a validated animal model of alcohol abuse (Ciccocioppo et al, 2006; Hansson et al, 2006). […]
Alcohol, water and food intake were monitored daily at 0.5, 2, 8 and 24 hours. For all the experiments performed, intakes were recorded for several additional days after the end of the drug treatment period. […]

Structure (SMILES): C=C1CC[C@@H]2[C@](C)(CO)[C@H](O)CC[C@@]2(C)[C@@H]1C/C=C1/C(=O)OC[C@H]1O [andrographolide]
- water consumption: not modified
- food consumption: not statistically significant
- food consumption (listed as Andrographolide): not modified
